Experimental data as given in patent US5034317A, “Enzyme controlled release system and organic conjugate reactant” (priority 1987, dated 1991).
At least one compound was matched to its structure with a doubt left.

Sequences of proteins named here, by UniProt entry; tags and fusion partners are left off. Residues count along the entry.
UniProt Q2UCU3, 19-1005: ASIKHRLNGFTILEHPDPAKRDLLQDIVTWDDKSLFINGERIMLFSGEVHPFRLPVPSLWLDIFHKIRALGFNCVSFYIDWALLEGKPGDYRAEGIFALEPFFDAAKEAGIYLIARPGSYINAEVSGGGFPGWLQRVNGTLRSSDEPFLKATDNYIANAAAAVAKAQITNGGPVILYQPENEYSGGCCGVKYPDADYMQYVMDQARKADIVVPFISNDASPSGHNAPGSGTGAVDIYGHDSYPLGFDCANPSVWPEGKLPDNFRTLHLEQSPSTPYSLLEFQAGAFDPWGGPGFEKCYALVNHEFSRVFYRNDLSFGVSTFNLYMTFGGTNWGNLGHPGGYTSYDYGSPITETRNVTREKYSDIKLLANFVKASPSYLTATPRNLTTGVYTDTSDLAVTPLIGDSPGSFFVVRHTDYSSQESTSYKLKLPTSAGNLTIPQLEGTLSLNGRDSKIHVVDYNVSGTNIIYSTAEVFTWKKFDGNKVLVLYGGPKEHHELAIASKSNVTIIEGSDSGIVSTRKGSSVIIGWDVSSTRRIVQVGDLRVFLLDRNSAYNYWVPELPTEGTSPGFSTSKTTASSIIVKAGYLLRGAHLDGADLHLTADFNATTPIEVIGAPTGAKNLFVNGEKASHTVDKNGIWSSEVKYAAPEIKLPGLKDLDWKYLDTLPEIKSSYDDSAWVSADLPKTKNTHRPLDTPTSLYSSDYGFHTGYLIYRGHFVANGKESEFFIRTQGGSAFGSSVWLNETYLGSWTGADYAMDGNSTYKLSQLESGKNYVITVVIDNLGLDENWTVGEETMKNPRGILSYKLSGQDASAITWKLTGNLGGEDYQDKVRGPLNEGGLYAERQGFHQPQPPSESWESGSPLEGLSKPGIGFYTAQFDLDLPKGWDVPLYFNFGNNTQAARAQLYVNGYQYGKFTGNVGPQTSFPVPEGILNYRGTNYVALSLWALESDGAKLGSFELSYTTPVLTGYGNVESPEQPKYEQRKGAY

Target: Aspergillus oryzae β-galactosidase (Aspergillus oryzae, UniProt Q2UCU3)
Assay: Enzymatic hydrolysis of conjugate reactants by Aspergillus oryzae β-galactosidase (release of displaceable ligand)
Assay type: biochemical
Text: A major advantage provided by the organic conjugate compositions comprising the present invention is the selective ability to discriminate not only between different classes of enzymes, but also to distinguish the same enzyme obtained from different sources. […] Each of the individual, separately derived, beta-galactosidases were commercially obtained and empirically evaluated using the test protocol described previously in Example 6.

With `O=[N+]([O-])c1ccccc1O[C@@H]1O[C@H](CO)[C@H](O)[C@H](O)[C@H]1O` [ONPG, ortho-nitro phenyl galactopyranose, reference compound] the “Measured Rate of Reaction” value (reactant 1.7 × 10^-5 M, temperature 36.5, 0.85 units Aspergillus oryzae β-galactosidase, pH 7.0 (Table 5)) was 0.012 µmol/min, the “Measured Rate of Reaction” value (reactant 10^-3 M, temperature 25, 0.5 units Aspergillus oryzae β-galactosidase, pH 5.5 (Table 5)) was 0.038 µmol/min and the “Measured Rate of Reaction” value (reactant 10^-3 M, temperature 25, 0.85 units Aspergillus oryzae β-galactosidase, pH 7.0 (Table 5)) was 0.022 µmol/min. The “Measured Rate of Reaction” value (reactant 10^-3 M, temperature 25, 1.0 units Aspergillus oryzae β-galactosidase, pH 5.5 (Table 5)) was 0.15 µmol/min and the “Measured Rate of Reaction” value (reactant 10^-3 M, temperature 25, 4.2 units Aspergillus oryzae β-galactosidase, pH 7.0 (Table 5)) was 0.087 µmol/min.
